{
  "source": "patent US20050182065A1",
  "about": "“Method of stimulating hair growth” (priority 2004, published 2005)",
  "origin": "cited, not measured here",
  "key": {"[1]": {"conditions": "Tosti, Dermatologica 1986; cited from earlier work"}, "[2]": {"conditions": "83 males; topical solution of 3% minoxidil; 19 months; cited from earlier work"}},
  "note": "For at least one compound, name, drawing or mass did not settle the structure.",
  "data": [
    {"smiles": "Nc1cc(N2CCCCC2)nc(N)[n+]1[O-]", "note": "[minoxidil, Minoxidil]", "values": [
      {"measurement": "Subjects with cosmetically acceptable regrowth", "setting": "[1]", "result": 18.1, "unit": "%"},
      {"measurement": "Subjects in whom hair growth occurred", "setting": "[2]", "result": 55, "unit": "%"},
      {"measurement": "Subjects who considered the growth to be cosmetically relevant", "setting": "[2]", "result": 20, "unit": "%"}
    ]}
  ]
}
